The values below come from patent publication US4313943A, “7-Chloro-2,3-dihydro-5-phenyl-1-propargyl-1H-1,4-benzodiazepine-2-one, and a pharmaceutical composition thereof” (priority 1972, dated 1982).

The nature of data set [1]: Motor coordination in rats (rotarod, Dunham and Miya 1957). The note with it: rat, po. (The rotarod test checks motor coordination on a turning rod.)
A short description of data set [2]: Acute toxicity comparison (LD50, Litchfield and Wilcoxan). Particulars: in vivo; Table 11; oral; species not given. On the procedure: Toxicity in test animals to the test compounds in terms of LD50 after oral and intraperitoneal administration was determined according to the procedure of Litchfield and Wilcoxan (1949) and the hypnotic effect on test animals was determined in accordance with the method of Janssen (1959).

SMILES strings stand for the structures.

For orientation: TD50 means the dose at which the toxic effect under study appears in half of the subjects. Broadly, the LD50 is the dose expected to kill half of the subjects tested. Higher therefore signals a less toxic substance. As for `CN1C(=O)CN=C(c2ccccc2)c2cc(Cl)ccc21` [Compound 3, 7-chloro-1,3-dihydro-1-methyl-5-phenyl-2H-1,4-benzodiazepin-2-one, reference compound], the TD50 in data set [1] came out at 14.2 mg/kg. The same compound showed an LD50 in data set [2] of 2080 mg/kg.
